Laboratory results from the supplement of paper PMC10735217.
Structures can show the parent of a compound that is named as a salt. The list shows a part of the results. Repeats in this data set agree poorly, so a single value says little.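 In a drug-repurposing library screen, luminescence reads luciferase driven by eight TEAD-binding elements, stably integrated into human kidney-derived cells. Compounds scoring over five robust Z scores above the plate mean are called hits.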

Tested on: HEK293A TEAD-LUC reporter
Experiment: TEAD-luciferase reporter activity (YAP activation), robust Z score vs plate; higher = stronger YAP/TEAD activation
Conditions: 24 h

| SMILES | TEAD-luciferase reporter activity (compound concentration: 200 nM) | TEAD-luciferase reporter activity (compound concentration: 2 uM) | TEAD-luciferase reporter activity (compound concentration: 10 uM) |
| --- | --- | --- | --- |
| CCc1nn(Cc2ccc(-c3ccccc3-c3nnn[nH]3)cc2)/c(=N/C(=O)C2=C(C(=O)O)CCC2)s1 | inactive: -2.45 | inactive: -0.988 | inactive: 0.169 |
| COC(=O)C1=C(C)NC(C)=C(C(=O)OCCN(C)Cc2ccccc2)C1c1cccc([N+](=O)[O-])c1 (stereo unspecified) [nicardipine SR] | – | inactive: -2.75 | – |
| COC(=O)C1=C(C)NC(C)=C(C(=O)OCCN(C)Cc2ccccc2)C1c1cccc([N+](=O)[O-])c1 (stereo unspecified) [Nicardipine] | inactive: 0.0283 | inactive: -1.17 | inactive: -1.07 |
| O=C(CCn1c(CN2CCN(C/C=C/c3ccccc3)CC2)nc2ccccc21)c1ccco1 [fuprazole] | inactive: -0.735 | inactive: -0.353 | – |
| COc1cc(F)c(F)c(Nc2ccc(I)cc2F)c1NS(=O)(=O)C1(C[C@H](O)CO)CC1 [Refametinib] | inactive: -2.53 | inactive: -0.818 | inactive: -0.814 |
| CC(C)NCC(O)COC1CCC(C(C)(C)C)CC1 (stereo unspecified) | inactive: 2.1 | inactive: -0.748 | inactive: -0.427 |
| O=C(N[C@H]1[C@H](OC(=O)c2cccnc2)O[C@H](COC(=O)c2cccnc2)[C@@H](OC(=O)c2cccnc2)[C@@H]1OC(=O)c1cccnc1)c1cccnc1 | inactive: 0.908 | inactive: -0.699 | inactive: 1.69 |
| CN(C)CCCC(=O)N1Cc2ccccc2CC2(CCCCN2CC2CCNCC2)C1 (stereo unspecified) | inactive: -0.84 | – | inactive: -0.535 |
| O=C(NC1CCN(c2nc3ncccc3o2)CC1)C1CC1 | inactive: 1.41 | – | inactive: 4.71 |
| CCOC(=O)c1ncn2c1CN(C)C(=O)c1cc(F)ccc1-2 [flumazenil] | – | inactive: -0.977 | – |
| CCOC(=O)c1ncn2c1CN(C)C(=O)c1cc(F)ccc1-2 | inactive: 1.06 | – | inactive: 1.97 |
| COc1ccc(CN2CCN(c3ccc(Br)c(OC)n3)CC2)cc1OC | inactive: 0.842 | inactive: -0.604 | inactive: 1.35 |
| O=C1CCCN1CCCCN1CCN(c2cc(C(F)(F)F)ccn2)CC1 | inactive: -1.68 | inactive: 1.35 | inactive: 1.31 |
| c1ccc(C2=N[C@@H](c3ccccc3)[C@@H](c3ccccc3)N2)cc1 | inactive: -0.952 | inactive: -2.13 | inactive: -0.365 |
| CC(C(=O)O)c1ccc(-c2cn3ccccc3n2)cc1 (stereo unspecified) [miroprofen] | inactive: 1.51 | inactive: -2.46 | inactive: 1.61 |
| CN(N=O)C(=O)NC1C(O)OC(CO)C(O)C1O (stereo unspecified) [Streptozocin] | inactive: -1.2 | inactive: -1.16 | inactive: -0.199 |
| Cc1[nH]c2cccc(OCC(O)CNCCOc3ccccc3)c2c1Cl (stereo unspecified) [indopanolol] | inactive: 0.0928 | inactive: -0.483 | inactive: 3.41 |
| CC(=O)N[C@@H](CNC(=O)[C@@H]1CCCN(C(=O)CCC2CCNCC2)C1)C(=O)O | inactive: 0.137 | inactive: -0.0501 | inactive: 1.55 |
| OCc1ccccc1 | inactive: 0.242 | inactive: -0.688 | inactive: 0.984 |
| O=C(O)Cc1ccc(OCc2ccccc2)c(Cl)c1 [Benzofenac] | inactive: -1.95 | inactive: 0.0423 | inactive: -0.156 |

| SMILES | TEAD-luciferase reporter activity (compound concentration: 200 nM) | TEAD-luciferase reporter activity (compound concentration: 2 uM) | TEAD-luciferase reporter activity (compound concentration: 10 uM) |
| --- | --- | --- | --- |
| CC(C)[C@@H]1NC(=O)[C@H](CCCNC(=N)N)NC(=O)[C@H](CCC(N)=O)NC(=O)[C@H](Cc2cnc[nH]2)NC(=O)[C@H](CCC(=O)O)NC(=O)[C@@H]2CCCN2C(=O)[C@H](CO)NC(=O)[C@H](CCC(N)=O)NC1=O | inactive: -1.26 | inactive: 2.93 | inactive: 2.05 |
| CCN/C(=N\S(=O)(=O)c1ccc(CNC(=O)c2ccccc2)s1)N1CC(CC)C=N1 (stereo unspecified) | inactive: -0.752 | inactive: -0.683 | inactive: 0.353 |
| CC1(C)[C@H](C(=O)O)N2C(=O)C[C@H]2S1(=O)=O [Sulbactam] | inactive: 0.414 | – | inactive: 0.187 |
| CC1(C)[C@H](C(=O)O)N2C(=O)C[C@H]2S1(=O)=O [sulbactam] | – | inactive: 0.023 | – |
| Cc1ccc(S(=O)(=O)NC(=O)N2CCC(N3CCC(Oc4ccc(Cl)c(Cl)c4)CC3)CC2)cc1 | inactive: 1.08 | inactive: 0.913 | inactive: 1.19 |
| CC1=NOC2(CCN(C(=O)c3ccc4c(c3)OCO4)CC2)C1 | inactive: -0.221 | – | inactive: 2.4 |
| C[C@@H]1CCCN1CCCOc1ccc(-c2ccc(=O)[nH]n2)cc1 | inactive: -1.21 | inactive: -1 | inactive: 1.39 |
| NC(=O)N1c2ccccc2CC(=O)c2ccccc21 [oxcarbazepine MR] | – | inactive: -1.53 | – |
| NC(=O)N1c2ccccc2CC(=O)c2ccccc21 | inactive: -1.6 | – | inactive: -0.472 |
| C[C@H]1C[C@H]2[C@@H]3CCC4=CC(=O)C=C[C@]4(C)[C@H]3C(=O)C[C@]2(C)[C@@]1(O)C(=O)CO | – | inactive: -1.01 | – |
| C[C@H]1C[C@H]2[C@@H]3CCC4=CC(=O)C=C[C@]4(C)[C@H]3C(=O)C[C@]2(C)[C@@]1(O)C(=O)CO [Betapar (Meprednisone)] | inactive: -0.232 | – | inactive: 0.0996 |
| CCOC(=O)CCc1ccccc1OC[C@@H](O)CNC(C)C | inactive: -0.8 | inactive: -0.208 | inactive: -0.263 |
| COC(=O)C1=C(C#N)NC(C)=C(C(=O)OC(C)C)C1c1cccc([N+](=O)[O-])c1 (stereo unspecified) [nilvadipine] | inactive: -0.294 | inactive: -0.389 | inactive: -1.1 |
| O=C1c2ccccc2CN2C(=O)c3ccccc3CN12 [diftalone] | inactive: -0.844 | inactive: 4.19 | inactive: -0.596 |
| Cc1c(C(=O)c2ccccc2)c(=O)n(C)c(=O)n1C | inactive: -1.54 | inactive: -1.04 | inactive: 1.3 |
| COc1cc(CCCCN2CCCN(CCCCc3cc(OC)c(OC)c(OC)c3)CC2)cc(OC)c1OC | inactive: -1.45 | inactive: -0.831 | inactive: -0.0597 |
| CN(C(=O)c1ccc(F)cc1C(F)(F)F)C1CCN(c2nnc(-c3ccnn3C)c3ccccc23)CC1 [Taladegib hydrochloride] | inactive: -0.892 | inactive: -0.838 | inactive: -0.826 |
| CC(=O)OCC(=O)[C@H]1CCC2C3CC=C4C[C@@H](O)CC[C@]4(C)C3CC[C@@]21C (stereo partly specified) | inactive: -1.16 | inactive: -0.81 | inactive: 1.75 |
| N[C@@H](CSCC(=O)O)C(=O)O [carbocisteine, Sopar] | inactive: -0.695 | – | inactive: 0.881 |
| CCC(C(=O)NC(N)=O)c1ccccc1 (stereo unspecified) | inactive: 1.18 | inactive: -1.65 | inactive: 0.612 |

| SMILES | TEAD-luciferase reporter activity (compound concentration: 200 nM) | TEAD-luciferase reporter activity (compound concentration: 2 uM) | TEAD-luciferase reporter activity (compound concentration: 10 uM) |
| --- | --- | --- | --- |
| COc1cccc(CCc2ccccc2OCC[C@H]2C[C@@H](O)CN2C)c1 | inactive: -0.832 | inactive: -0.988 | inactive: -0.297 |
| CCCC=C1NN(c2ccccc2C(F)(F)F)C(=O)N1Cc1ccc(-c2ccccc2S(=O)(=O)NC(=O)c2sccc2C)cc1 | inactive: 3.24 | inactive: 3.51 | active: 9.32 |
| COc1cc2nc(N(C)CCCNC(=O)C3CCCO3)nc(N)c2cc1OC (stereo unspecified) | inactive: -3.15 | – | inactive: 0.289 |
| COc1cc2nc(N(C)CCCNC(=O)C3CCCO3)nc(N)c2cc1OC (stereo unspecified) [alfuzosin] | – | inactive: -0.402 | – |
| Nc1ccc(C(=O)Oc2ccccc2)c(O)c1 | inactive: -0.892 | inactive: 2.46 | inactive: 2.55 |
| Oc1cc(O)c(Cl)cn1 [Gimeracil] | inactive: -0.916 | inactive: 0.0738 | inactive: -0.429 |
| C[C@H](NC(=O)c1c(N)nn2cccnc12)c1cc2cccc(C#Cc3cnn(C)c3)c2c(=O)n1-c1ccccc1 | inactive: 0.0691 | inactive: -0.278 | inactive: 1.37 |
| CNC1CCCc2c(OC)ccc(Cl)c21 (stereo unspecified) | inactive: 0.622 | inactive: -0.899 | inactive: -0.27 |
| Nc1ccn([C@@H]2C(F)=C(CO)[C@@H](O)[C@H]2O)c(=O)n1 | inactive: -0.508 | inactive: 0.864 | inactive: 1.56 |
| CC(=O)c1ccc2c(c1)c1cc(C(C)=O)ccc1n2CCNC(C)C | inactive: 1.34 | inactive: -1.73 | active: 5.48 |
| CN(C)CCCOC(CCCCc1ccccc1)c1ccccc1 (stereo unspecified) | inactive: 0.952 | inactive: -1.23 | inactive: -0.299 |
| CCN(CC)CC(=O)Nc1c(C)cccc1C(=O)OC | inactive: -0.329 | inactive: -0.318 | inactive: 0.0174 |
| CC(C)=CCc1c(O)cc(O)c2c(=O)c(O)c(-c3ccc(C(F)(F)F)cc3)oc12 | inactive: -0.427 | inactive: 1.33 | inactive: 2.45 |
| CC(=O)Oc1ccc(/N=N/c2ccc(S(=O)(=O)Nc3nc(C)cc(C)n3)cc2)cc1C(=O)O [disalazine] | active: 5.96 | inactive: -1.3 | inactive: -3.06 |
| CC1CCCN(Cc2cccc(OCCCNC(=O)c3ccc[n+]([O-])c3)c2)C1 (stereo unspecified) | inactive: -2.13 | inactive: -0.639 | inactive: 2.08 |
| CC(C)C[C@H](NC(=O)[C@@H]1CCCC(=O)N1)C(=O)N1CCC[C@H]1C(N)=O | inactive: -0.094 | inactive: -1.15 | inactive: 2.73 |
| C[C@H](c1ccc(F)cc1CCCC(=O)O)N(c1cc(F)ccc1F)S(=O)(=O)c1ccc(Cl)cc1 | inactive: 0.173 | inactive: -1.17 | inactive: 3.52 |
| O=C(NC1CCCC1)NC1CCN(c2nc3ncccc3o2)CC1 | inactive: -1.13 | – | inactive: 1.42 |
